Data from patent US20190374627A1, “TARGET PEPTIDES FOR CANCER THERAPY AND DIAGNOSTICS” (priority 2016, published 2019).

Legend:
Parameters in all cases: key: The presence of phosphopeptides in previously analyzed samples including leukemia, colorectal cancer, melanoma, ovarian cancer, breast cancer, and esophageal cancer is indicated by ✓
colorectal cancer = assay: Presence of the phosphopeptide in previously analyzed colorectal cancer samples
ovarian cancer = assay: Presence of the phosphopeptide in previously analyzed ovarian cancer samples
melanoma = assay: Presence of the phosphopeptide in previously analyzed melanoma samples

2 (ALDSGASLLHL; (4)...(4) The amino acid at this position is optionally phosphorylated; listed as Homo sapiens) [compound 2]
Colorectal (colorectal cancer): ✓
Ovarian (ovarian cancer): ✓

6 (AVVSPPALHNA; (5)...(5) The amino acid at this position is optionally phosphorylated; listed as Homo sapiens) [compound 6]
Melanoma (melanoma): ✓
Ovarian (ovarian cancer): ✓

15 (KAFSPVR; (4)...(4) The amino acid at this position is optionally phosphorylated; listed as Homo sapiens) [compound 15]
Colorectal (colorectal cancer): ✓
Ovarian (ovarian cancer): ✓

23 (KLIDRTESL; (8)...(8) The amino acid at this position is optionally phosphorylated; listed as Homo sapiens) [compound 23]
Colorectal (colorectal cancer): ✓
Ovarian (ovarian cancer): ✓

25 (KLMSPKADVKL; (4)...(4) The amino acid at this position is optionally phosphorylated; listed as Homo sapiens) [compound 25]
Melanoma (melanoma): ✓
Ovarian (ovarian cancer): ✓

27 (KTMSGTFLL; (4)...(4) The amino acid at this position is optionally phosphorylated; listed as Homo sapiens) [compound 27]
Colorectal (colorectal cancer): ✓
Ovarian (ovarian cancer): ✓

29 (LMFSPVTSL; (4)...(4) The amino acid at this position is optionally phosphorylated; listed as Homo sapiens) [compound 29]
Melanoma (melanoma): ✓
Ovarian (ovarian cancer): ✓

35 (RLDSYVR; (4)...(4) The amino acid at this position is optionally phosphorylated; listed as Homo sapiens) [compound 35]
Melanoma (melanoma): ✓
Ovarian (ovarian cancer): ✓

38 (RLFSKELR; (4)...(4) The amino acid at this position is optionally phosphorylated; listed as Homo sapiens) [compound 38]
Melanoma (melanoma): ✓
Ovarian (ovarian cancer): ✓

39 (RLFSKELRC; (4)...(4) The amino acid at this position is optionally phosphorylated; listed as Homo sapiens) [compound 39]
Melanoma (melanoma): ✓
Ovarian (ovarian cancer): ✓

55 (RTLSHISEA; (4)...(4) The amino acid at this position is optionally phosphorylated; listed as Homo sapiens) [compound 55]
Melanoma (melanoma): ✓
Ovarian (ovarian cancer): ✓

65 (SLFSSEESNLGA; (4)...(4) The amino acid at this position is optionally phosphorylated; listed as Homo sapiens) [compound 65]
Melanoma (melanoma): ✓
Ovarian (ovarian cancer): ✓

70 (SMTRSPPRV; (5)...(5) The amino acid at this position is optionally phosphorylated; listed as Homo sapiens) [compound 70]
Melanoma (melanoma): ✓
Ovarian (ovarian cancer): ✓

74 (VLLSPVPEL; (4)...(4) The amino acid at this position is optionally phosphorylated; listed as Homo sapiens) [compound 74]
Melanoma (melanoma): ✓
Ovarian (ovarian cancer): ✓

75 (VLYSPQMAL; (4)...(4) The amino acid at this position is optionally phosphorylated; listed as Homo sapiens) [compound 75]
Ovarian (ovarian cancer): ✓

77 (YLQSRYYRA; (1)...(1) The amino acid at this position is optionally phosphorylated; listed as Homo sapiens) [compound 77]
Ovarian (ovarian cancer): ✓

387 (RVDSPSHGL; (4)...(4) The amino acid at this position is optionally phosphorylated; listed as Homo sapiens) [compound 387]
Ovarian (ovarian cancer): ✓
